PubChem BioAssay AID504764 | Drosophila RNAi Screening Center, 2011

Aim: 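Genes whose knock-down alters Notch-dependent transcription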 (primary screen)
System: Drosophila Kc167 cells
Reagents: long dsRNA against Drosophila genes
Duration: about 5 days (4 days dsRNA, then 24 h after transfection)
Treatment: transfection of constitutively active membrane-tethered Notch lacking the extracellular domain, read 24 h later
Measured: 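Light from a Notch-responsive E(spl)m3 luciferase reporter under active Notch, with control-promoter and no-Notch reporter wells to normalise; raw counts from paired wells a and b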
Reading the numbers: induced reporter light, run 1, well a and induced reporter light, run 1, well b: higher = more light from the Notch target reporter with active Notch; control promoter light, run 1, well a and control promoter light, run 1, well b: higher = more light from the viral control promoter (cell number, transfection, viability); uninduced reporter light, run 1, well a: higher = more light from the Notch target reporter without active Notch
Call rule: 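Wells with low control signal or poorly matching duplicates excluded; duplicates averaged; per source plate, z beyond ±2 for induced/control log2 ratio or beyond ±1.8 for induced/uninduced marks a hit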
Meaning of the calls: active = modifier hit (raised or lowered Notch signal); inactive = not a hit
The deposit covers about 22,000 reagents; this is an unselected part of those that have a named target and a result. Over the whole deposit, 403 (1.9%) are marked active. 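Unnormalised raw counts per well; ratio z-scores behind the hit calls and whether each hit raises or lowers signal are not deposited.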 Entries without a mark were called inactive. Reagents against one gene are numbered here. Not stated in the record: the amount of reagent.

gene	reagent no.	induced reporter light, run 1, well a	induced reporter light, run 1, well b	control promoter light, run 1, well a	control promoter light, run 1, well b	uninduced reporter light, run 1, well a
unc	1	1.05e5	1.50e5	1.67e5	2.09e5	12540
RnpS1	1	1.10e5	99125	56755	53340	6725
Spn28F	1	1.54e5	2.10e5	1.27e5	1.59e5	23065
l(3)07882	1	1.76e5	1.78e5	1.74e5	1.64e5	14670
Cks85A	1	90155	65630	1.15e5	85865	7540
botv	1	89495	1.00e5	1.50e5	2.09e5	9895
CG7079	1	2.01e5	1.61e5	1.61e5	1.69e5	10235
mRpL4	1	2.05e5	2.05e5	1.86e5	2.02e5	17475
GstD1	1	88485	79290	78235	59025	5170
Cpr30B	1	1.37e5	1.61e5	95140	1.08e5	22565
Osi19	1	75890	90330	85530	56995	5782
CG31650	1	22540	30980	20680	22605	1765
t	1	91810	87790	1.25e5	1.54e5	6810
Naus	1	1.08e5	99390	1.89e5	1.90e5	9045
Naus	2	65960	58875	75565	62025	8130
gem	1	75470	70010	62400	74135	6710
gem	2	2.29e5	2.16e5	2.79e5	2.51e5	16360
nenya	1	2.19e5	2.21e5	2.30e5	2.26e5	16375
CG13407	1	1.78e5	1.55e5	1.67e5	1.71e5	12735
hrm	1	1.57e5	1.48e5	1.83e5	1.79e5	9345
Octbeta1R	1	1.88e5	1.75e5	1.91e5	2.11e5	13540
wek	1	2.09e5	2.09e5	1.94e5	1.92e5	15785
CG8272	1	64965	55475	52715	47030	5095
Ir94f	1	1.79e5	2.16e5	2.25e5	2.27e5	15435
CG3436	1	1.68e5	1.51e5	1.68e5	1.45e5	15830
CG42525	1	1.87e5	1.48e5	1.59e5	1.30e5	12525
CG33093	1	1.90e5	1.69e5	2.92e5	2.80e5	13695
CG42729	1	1.95e5	1.77e5	2.45e5	2.26e5	5610
CG15344 (retired record)	1	1.15e5	1.36e5	2.23e5	2.70e5	8805
CG5225	1	1.73e5	1.97e5	2.08e5	2.41e5	16810
CG32432	1	8395	7685	8225	6900	1805
CG32432	2	15370	15655	15785	11940	2960
CG32432	3	1.84e5	1.18e5	1.23e5	89260	15955
noi	1	20185	21580	18665	15285	1565
